This is an account of results in PMC7758017 (Iranian Journal of Pharmaceutical Research : IJPR, 2020).

For data set [1] the following is noted: higher in old, ref [31]; cited from earlier work.
The nature of the next data set: in vivo. To be noted: male, Wistar, rat, im.
Data set [2] is described as follows: Plasma pharmacokinetics after single i.m. injection in rats (HPLC-UV). The following applies: male, Wistar, rat, in vivo, im.

SMILES strings stand for the structures.

One may read the CL/F as the apparent clearance, not corrected for the fraction that reaches the circulation. As usually defined, the Tmax is the time at which the peak concentration occurs. What is called half-life is how long it takes for the measured level to halve. A low value points to rapid decline. In general, Vd/F refers to the volume of distribution divided by bioavailability. Turning to `COc1cc2c(cc1OC)C(=O)C(CC1CCN(Cc3ccccc3)CC1)C2` (centres unmarked) [Donepezil], in data set [1], the “brain concentration in old rats compared to young animals” value is 1.8 fold. Also, in “in vivo”, the CL/F turned out to be 1000 ± 130 mL/min/kg, the Tmax was 22 min and the half-life was 57.1 ± 10.1 min. The Vd/F in data set [2] is 82.1 ± 13.9 L/kg.
